From patent publication US20190367445A1, “4-AMINO SUBSTITUTED PHENYLAMIDINE DERIVATIVES AND THEIR USE TO PROTECT CROPS BY FIGHTING UNDESIRED PHYTOPATHOGENIC MICOORGANISMS” (PI INDUSTRIES LTD., priority 2016, published 2019)
Some of these results come from one statement about several compounds together. For at least one compound, name, drawing or mass did not settle the structure. Some compounds share one range, which may span the group rather than tell each member.

Assays:
Assay type in all cases: cell-based
[1] = tested on: Rhizoctonia solani (Rice sheath blight/Potato black scurf); assay: In vitro test on Potato Dextrose Agar, radial growth: Rhizoctonia solani; conditions: 300 ppm, radial growth after seven days, 25° C., 60% relative humidity
[2] = tested on: Alternaria solani (early blight of tomato/potato); assay: In vitro test on Potato Dextrose Agar, radial growth: Alternaria solani; conditions: 300 ppm, radial growth after seven days, 25° C., 60% relative humidity
[3] = tested on: Botrytis cinerea (Gray mold); assay: In vitro test on Potato Dextrose Agar, radial growth: Botrytis cinerea; conditions: 300 ppm, radial growth after seven days, 22° C., 90% relative humidity
[4] = tested on: Colletotrichum capsici (anthracnose); assay: In vitro test on Potato Dextrose Agar, radial growth: Colletotrichum capsici; conditions: 300 ppm, radial growth after seven days, 25° C., 60% relative humidity

SMILES | control compared to untreated check [1] [%] | control compared to untreated check [2] [%] | control compared to untreated check [3] [%] | control compared to untreated check [4] [%]
CCN(C)C=Nc1cc(C)c(N(C)c2ccccn2)cc1Cl [Compound 42] | 70 to 100 | 70 to 100 |  | 
Cc1cc(N(C)c2cccc(Cl)c2)c(C)cc1N=CN1CCOCC1 [Compound 49] | 70 to 100 | 70 to 100 |  | 
CCN(C)C=Nc1cc(C)c(N(C)c2cccc(Cl)c2)cc1Cl [Compound 50] | 70 to 100 | 70 to 100 |  | 
CCN(C)C=Nc1cc(C)c(N(C)c2ccccc2OC)cc1C [Compound 65] | 70 to 100 | 70 to 100 |  | 
CCN(C)C=Nc1cc(C)c(Nc2cccc(C)c2)cc1Cl [Compound 68] | 70 to 100 | 70 to 100 |  | 
CCN(C)C=Nc1cc(C)c(Nc2cccc(OC)c2)cc1Cl [Compound 69] |  | 70 to 100 |  | 
CCN(C)C=Nc1cc(C)c(Nc2ccccc2C)cc1Cl [Compound 70] | 70 to 100 | 70 to 100 | 70 to 100 | 
CCN(C)C=Nc1cc(C)c(Nc2ccc(Cl)cc2)cc1Cl [Compound 71] | 70 to 100 | 70 to 100 |  | 70 to 100
CCN(C)C=Nc1cc(C)c(Nc2ccc(OC)cc2)cc1Cl [Compound 73] |  | 70 to 100 |  | 
CCN(C)C=Nc1cc(C)c(N(C)c2ccccc2C)cc1Cl [Compound 74] | 70 to 100 | 70 to 100 |  | 70 to 100
CCN(C)C=Nc1cc(C)c(N(C)c2ccccc2Br)cc1Cl [Compound 76] | 70 to 100 | 70 to 100 | 70 to 100 | 70 to 100
CCN(C)C=Nc1cc(C)c(Nc2ccccc2OC)cc1Cl [Compound 78] | 70 to 100 | 70 to 100 | 70 to 100 | 
CCN(C)C=Nc1cc(C)c(Nc2ccccc2C(F)(F)F)cc1Cl [Compound 79] | 70 to 100 | 70 to 100 | 70 to 100 | 70 to 100
CCN(C)C=Nc1cc(C)c(N(C)c2ccccc2C(F)(F)F)cc1Cl [Compound 80] | 70 to 100 | 70 to 100 | 70 to 100 | 70 to 100
CCN(C)C=Nc1cc(C)c(Nc2ccc(C(F)(F)F)cc2)cc1Cl [Compound 81] | 70 to 100 | 70 to 100 | 70 to 100 | 
CCN(C)C=Nc1cc(C)c(Nc2cccc(F)c2)cc1Cl [Compound 82] | 70 to 100 | 70 to 100 | 70 to 100 | 70 to 100
CCN(C)C=Nc1cc(C)c(N(C)c2cccc(F)c2)cc1Cl [Compound 84] | 70 to 100 | 70 to 100 | 70 to 100 | 
CCN(C)C=Nc1cc(C)c(Nc2c(F)cccc2F)cc1Cl [Compound 91] | 70 to 100 | 70 to 100 |  | 
CCN(C)C=Nc1cc(C)c(N(C)c2c(F)cccc2F)cc1C [Compound 92] | 70 to 100 | 70 to 100 |  | 70 to 100
CCN(C)C=Nc1cc(C)c(Nc2c(F)cccc2Cl)cc1C [Compound 94] | 70 to 100 | 70 to 100 | 70 to 100 | 
CCN(C)C=Nc1cc(C)c(Nc2cccc(OC(F)(F)F)c2)cc1Cl [Compound 101] | 70 to 100 | 70 to 100 | 70 to 100 | 
CCN(C)C=Nc1cc(C)c(N(C)c2ccccc2OC(F)(F)F)cc1Cl [Compound 105] | 70 to 100 | 70 to 100 | 70 to 100 | 
CCN(C)C=Nc1cc(C)c(N(C)c2ccc(OC(F)(F)F)cc2)cc1Cl [Compound 107] | 70 to 100 | 70 to 100 | 70 to 100 | 
CCN(C)C=Nc1cc(C)c(N(C)c2cccc(OC(F)(F)F)c2)cc1Cl [Compound 108] | 70 to 100 | 70 to 100 | 70 to 100 | 
CCN(C)C=Nc1cc(C)c(Nc2ccc(S(F)(F)(F)(F)F)cc2)cc1Cl [Compound 111] | 70 to 100 |  |  | 70 to 100
CCN(C)C=Nc1cc(C)c(N(C)c2ccc(S(F)(F)(F)(F)F)cc2)cc1C [Compound 113] | 70 to 100 |  |  | 70 to 100

SMILES | control compared to untreated check [1] [%] | control compared to untreated check [2] [%] | control compared to untreated check [3] [%] | control compared to untreated check [4] [%]
CCN(C)C=Nc1cc(C)c(N(C)c2ccc(S(F)(F)(F)(F)F)cc2)cc1Cl [Compound 114] | 70 to 100 |  |  | 
CCN(C)C=Nc1cc(C)c(N(C)c2cccc(SC)c2)cc1Cl [Compound 115] | 70 to 100 | 70 to 100 | 70 to 100 | 
CCN(C)C=Nc1cc(C)c(Nc2ccc(SC(F)(F)F)cc2)cc1Cl [Compound 120] | 70 to 100 |  | 70 to 100 | 
CCN(C)C=Nc1cc(C)c(N(C)c2ccccc2SC(F)(F)F)cc1Cl [Compound 122] | 70 to 100 |  | 70 to 100 | 
CCN(C)C=Nc1cc(C)c(Nc2ccc(N(C)C)cc2)cc1Cl [Compound 140] | 70 to 100 | 70 to 100 |  | 
CCN(C)C=Nc1cc(C)c(Nc2ccc(N(C)C)cc2)cc1C [Compound 141] |  | 70 to 100 |  | 70 to 100
CCN(C)C=Nc1cc(C)c(Nc2ccccc2OC(F)(F)F)cc1C [Compound 149] | 70 to 100 | 70 to 100 |  | 
CCN(C)C=Nc1cc(C)c(N(C)c2cc(C(F)(F)F)cc(C(F)(F)F)c2)cc1C [Compound 153] | 70 to 100 | 70 to 100 | 70 to 100 | 
CCN(C)C=Nc1cc(C)c(Nc2ccccc2SC)cc1Cl [Compound 165] | 70 to 100 | 70 to 100 |  | 
CCN(C)C=Nc1cc(C)c(Nc2ccccc2SC)cc1C [Compound 170] | 70 to 100 | 70 to 100 |  | 70 to 100
Cc1cc(N=CN(C)C)c(Cl)cc1N(C)c1ccccc1F [Compound 176] | 70 to 100 | 70 to 100 |  | 70 to 100
CCN(C)C=Nc1cc(C)c(N(CC)c2ccccc2F)cc1Cl [Compound 177] | 70 to 100 | 70 to 100 | 70 to 100 | 
CCN(C)C=Nc1cc(C)c(Nc2ccc(SC(F)F)cc2)cc1Cl [Compound 185] | 70 to 100 | 70 to 100 |  | 70 to 100
CCN(C)C=Nc1cc(C)c(N(C)c2ccc(SC(F)F)cc2)cc1Cl [Compound 187] | 70 to 100 | 70 to 100 | 70 to 100 | 
CCN(C)C=Nc1cc(C)c(N(C(C)=O)c2ccccc2)cc1Cl [Compound 189] |  | 70 to 100 |  | 
CCN(C)C=Nc1cc(C)c(N(CC)c2cccc(OC)c2)cc1Cl [Compound 192] | 70 to 100 | 70 to 100 |  | 
CCN(C)C=Nc1cc(C)c(Nc2ccc(F)c(OC(F)F)c2)cc1Cl [Compound 193] |  | 70 to 100 |  | 
CCN(C)C=Nc1cc(C)c(N(C)c2ccc(F)c(OC(F)F)c2)cc1Cl [Compound 196] |  | 70 to 100 |  | 
CCC(=O)N(c1cc(Cl)c(N=CN(C)CC)cc1C)c1ccccc1Cl [Compound 200] |  | 70 to 100 |  | 
CCN(C)C=Nc1cc(F)c(Nc2ccc(OC)cc2)cc1C [Compound 201] | 70 to 100 | 70 to 100 |  | 
CCC(=O)N(c1ccccc1)c1cc(Cl)c(N=CN(C)CC)cc1C [Compound 215] |  | 70 to 100 |  | 
CCN(C)C=Nc1cc(C)c(N(C(C)=O)c2cccc(OC)c2)cc1Cl [Compound 216] |  | 70 to 100 |  | 
CCN(C)C=Nc1cc(C)c(Nc2ccc3c(c2)CCN3C)cc1Cl [Compound 226] |  | 70 to 100 |  | 
CCN(C)C=Nc1cc(C)c(Nc2ccc3c(c2)CCCC3=O)cc1C [Compound 227] |  | 70 to 100 |  | 
CCN(C)C=Nc1cc(F)c(N(C)c2ccccc2)cc1C [Compound 228] | 70 to 100 | 70 to 100 |  | 
CCN(C)C=Nc1cc(F)c(N(C)c2ccc(C(C)(C)C)cc2)cc1C [Compound 229] | 70 to 100 | 70 to 100 | 70 to 100 | 
